Out of some 390,000 compounds screened, about 4,000 (1%) were called active. The shares of active, inactive and inconclusive entries below differ from those in the screen. The call rests on the fitted dose curve; in most records, active means well fitted inhibition curve with a large enough effect; inconclusive means small, poorly fitted or top-dose-only effect, or another doubt; inactive means no such curve, though single readings can be large or run the other way. Where the call is inconclusive, the potency comes from a doubtful curve fit.
Target: DNA polymerase iota (Homo sapiens) (UniProt Q9UNA4)
Assay: qHTS for Inhibitors of Polymerase Iota
Conditions: Pol iota fluorescent replication assay, 10 min; series mostly up to 115 µM; activity, negative = inhibition: at the top concentration
Summary of the method: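 Fluorescent replication assay read twice, at 0 min and 10 min after adding 50 nM (final) substrate. Enzyme (10 nM) and compounds were first incubated 15 min at room temperature; enzyme-free buffer wells were negative controls.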
Potency means the concentration at half of the fitted maximal effect.

The chains behind the UniProt entries cited, without tags or fusion partners. Where a name states a change or a piece, a line headed by the entry shows the natural chain unless it says otherwise.
UniProt Q9UNA4: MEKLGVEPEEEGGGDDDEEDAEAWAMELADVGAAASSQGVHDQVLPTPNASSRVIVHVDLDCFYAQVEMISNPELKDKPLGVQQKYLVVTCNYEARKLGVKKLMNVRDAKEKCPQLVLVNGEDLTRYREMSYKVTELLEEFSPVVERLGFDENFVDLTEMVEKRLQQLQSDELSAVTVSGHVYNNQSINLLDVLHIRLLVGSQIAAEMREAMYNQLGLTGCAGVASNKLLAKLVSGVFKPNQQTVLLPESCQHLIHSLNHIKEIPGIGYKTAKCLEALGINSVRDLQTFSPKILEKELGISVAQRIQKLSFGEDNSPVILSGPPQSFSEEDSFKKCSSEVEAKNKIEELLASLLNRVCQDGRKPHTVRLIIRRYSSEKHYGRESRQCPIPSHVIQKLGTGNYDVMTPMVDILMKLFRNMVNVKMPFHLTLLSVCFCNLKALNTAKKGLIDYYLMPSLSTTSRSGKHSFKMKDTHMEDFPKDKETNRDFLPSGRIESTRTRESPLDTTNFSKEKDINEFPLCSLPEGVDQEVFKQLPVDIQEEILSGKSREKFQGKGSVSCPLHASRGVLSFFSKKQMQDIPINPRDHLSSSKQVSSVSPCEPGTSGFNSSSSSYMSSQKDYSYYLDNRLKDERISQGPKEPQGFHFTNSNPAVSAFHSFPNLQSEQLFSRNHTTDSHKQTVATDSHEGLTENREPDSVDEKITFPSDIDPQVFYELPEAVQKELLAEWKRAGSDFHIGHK

Row | SMILES | Potency | activity, negative = inhibition
1 | COc1ccccc1NC(=O)CCc1nnc2ccc(NCc3ccco3)nn12 | inconclusive: 50.1 µM [inhibitor, partial curve, poor fit] | –
2 | Cc1csc(Cn2c(CN(C)C)nc3ccccc3c2=O)n1 | inconclusive: 25.1 µM [inhibitor, full curve, poor fit] | –
3 | COc1ccc(-c2cc(C(C)=O)c(C)n2CCC(=O)Nc2cccc(C)c2C)cc1 | inconclusive: 56.2 µM [inhibitor, partial curve, poor fit] | –
4 | Cc1ccc(Cc2cnc(N3C(=N)SC(c4ccccc4)C3=O)s2)cc1 (stereo unspecified) | inconclusive: 20 µM [inhibitor, partial curve, poor fit] | –
5 | COc1ccc(-n2nc3c(c2NC(=O)C(=O)NCc2ccccc2)CSC3)cc1 | – | inactive: -5.9%
6 | COc1ccc(C=C2SC(=S)NC2=O)c(OC)c1OC | – | inactive: -20.1%
7 | O=C(O)COc1ccc(/C=N/NC(=O)/C(=C/C=C/c2ccccc2)NC(=O)c2ccccc2)cc1 | inconclusive: 14.1 µM [inhibitor, full curve, poor fit] | –
8 | Cc1[nH]c(-c2ccc(F)cc2)cc1C(=O)N1CCN(c2ccccc2F)CC1 | – | inactive: 46.7%
9 | Cc1ccc(NC(=O)CN2C(=O)S/C(=C\c3cc(C)n(C)c3C)C2=O)cc1 | – | inactive: 7.8%
10 | O=C(O)CCn1cc(/C=C/C(=O)c2ccc(Cl)cc2)c(-c2cccc(Br)c2)n1 | inconclusive: 14.1 µM [inhibitor, full curve] | –
11 | CN(CC(=O)Nc1ccccc1Cl)C(=O)CSC(=S)N1CCCC1 | inconclusive: 70.8 µM [inhibitor, single point] | –
12 | Cc1nn(-c2ccccc2)c(C)c1/C=N/NC(=O)c1cc(O)cc(O)c1 | – | inactive: 60.1%
13 | COc1ccc(-n2c(O)c(/C=N/NS(=O)(=O)c3cccc([N+](=O)[O-])c3)c3ccccc3c2=O)cc1OC | inconclusive: 8.91 µM [inhibitor, full curve, poor fit] | –
14 | C/C(=N\NC(=O)c1c(C)nc2ccccn12)c1ccc(O)cc1O | inconclusive: 89.1 µM [inhibitor, single point] | –
15 | O=C(NN=C1CCN(Cc2ccccc2)CC1)c1ccccc1O | – | inactive: 116%
16 | COC(=O)c1ccc(NC(=O)CSc2nccn2Cc2ccc(Cl)cc2)cc1 | – | inactive: 10.3%
17 | O=C(CSC(=S)N1CCOCC1)c1cc(Br)cc(Br)c1O | inconclusive: 39.8 µM [inhibitor, single point] | –
18 | COC(=O)c1cc2oc(C)cc2n1CC(=O)Nc1ccc(OC)c(OC)c1 | inconclusive: 100 µM [inhibitor, single point] | –
19 | O=C(Nc1ccc2c(c1)OCCO2)c1ccc(Br)o1 | inconclusive: 112 µM [inhibitor, single point] | –
20 | Cc1ccc(S(=O)(=O)n2nc(C)c(Br)c2C)c(C)c1C | – | inactive: 8.32%
21 | CCN(CC)S(=O)(=O)c1ccc(O)c(NC(=O)c2cc(-c3cc(OC)c(OC)c(OC)c3)nc3ccccc23)c1 | inconclusive: 17.8 µM [inhibitor, full curve, poor fit] | –
22 | NS(=O)(=O)c1ccc(NC(=O)CSc2nnc(Cc3cccs3)n2-c2ccccc2)cc1 | inconclusive: 31.6 µM [inhibitor, partial curve, poor fit] | –

Row | SMILES | Potency | activity, negative = inhibition
23 | CCC(=O)N1CCc2cc(Br)cc(S(=O)(=O)CCC(=O)NCc3ccc(C)cc3)c21 | – | inactive: 12.8%
24 | O=C(O)c1ccc2c(c1)C(=O)/C(=C\c1ccco1)C2=O | active: 6.31 µM | –
25 | N#Cc1c2c(c(-c3ccco3)[nH]c1=O)CCCC2 | active: 28.2 µM | –
26 | Cc1cc(C)nc(NS(=O)(=O)c2ccc(N/C=C\C(=O)c3ccc(Cl)cc3)cc2)n1 | inconclusive: 44.7 µM [inhibitor, partial curve] | –
27 | CCCCN=C1SC(C(=O)Nc2sc3c(c2C(=O)OC)CCC3)C(N)=C1C(=O)N1CCOCC1 (stereo unspecified) | inconclusive: 79.4 µM [inhibitor, single point] | –
28 | COc1ccc2c(COC(=O)c3ccc(C)c(S(=O)(=O)N4CCOCC4)c3)cc(=O)oc2c1 | inconclusive: 79.4 µM [inhibitor, partial curve] | –
29 | COc1cc(NC(=O)CN2C(=O)C(c3ccc(C)cc3)=NC23CCCCCC3)cc(OC)c1 | – | inactive: 39%
30 | COc1ccc(OC)c(NC(=O)CSc2nccn2-c2cc(C)cc(C)c2)c1 | – | inactive: -4.88%
31 | N#Cc1nc(-c2ccc(OCc3ccccc3Cl)cc2)oc1N1CCC(C(N)=O)CC1 | – | inactive: 31.5%
32 | CCN(c1ccccc1)S(=O)(=O)c1cc(C(=O)NCC(c2ccco2)N2CCCCC2)ccc1C (stereo unspecified) | inconclusive: 56.2 µM [inhibitor, partial curve, poor fit] | –
33 | COc1ccc(/C=N/NC(=O)c2ccn[nH]2)cc1COc1ccc([N+](=O)[O-])c(C)c1 | inconclusive: 39.8 µM [inhibitor, single point] | –
34 | CC(C)C[C@H]1CN=C(N(C)C)N1CC1CCCCCC1 | inconclusive: 25.1 µM [inhibitor, partial curve, poor fit] | –
35 | COc1cc(NC(=O)c2noc3c2CC(C(C)(C)C)CC3)cc(OC)c1OC (stereo unspecified) | – | inactive: 18.8%
36 | CS(=O)(=O)N(CC(=O)NC1CCCCC1)c1cccc(Cl)c1 | inconclusive: 39.8 µM [inhibitor, single point] | –
37 | CCc1nn(CC(=O)N2CCN(CC)CC2)c(=O)c2cc3sccc3n12 | inconclusive: 100 µM [inhibitor, partial curve, poor fit] | –
38 | COc1ccc(-c2nc3ccccc3c(=O)n2O)cc1 | inconclusive: 25.1 µM [inhibitor, partial curve, poor fit] | –
39 | Cc1ccc(NC(=O)/C(=C\c2ccc([N+](=O)[O-])cc2)NC(=O)c2ccccc2)cc1 | – | inactive: -14.4%
40 | Cc1nc2ccccn2c1/C(O)=C1\C(=O)C(=O)N(CCCn2ccnc2)C1c1ccncc1 (stereo unspecified) | inconclusive: 112 µM [inhibitor, partial curve, poor fit] | –
41 | CCCN(CC(=O)Nc1ccccc1OC)C(=O)c1cc(-c2ccccc2)nn1-c1ccccc1 | – | inactive: 17.2%
42 | COc1ccccc1OCC(=O)N/N=C/C=C/c1ccc([N+](=O)[O-])o1 | active: 79.4 µM | –
43 | CCn1c(SCC(=O)Nc2ccccc2)nnc1-c1ccc(S(=O)(=O)N2CCOCC2)cc1 | inconclusive: 39.8 µM [inhibitor, single point] | –
44 | CCN(CC(=O)NC(C)C)C(=O)c1ccc(S(=O)(=O)N(C)c2ccccc2OC)cc1 | inconclusive: 3.16 µM [inhibitor, single point] | –

Exported in markdown: part of the list above.

| Row | SMILES | Potency | activity, negative = inhibition |
| --- | --- | --- | --- |
| 2 | Cc1csc(Cn2c(CN(C)C)nc3ccccc3c2=O)n1 | inconclusive: 25.1 µM [inhibitor, full curve, poor fit] | – |
| 3 | COc1ccc(-c2cc(C(C)=O)c(C)n2CCC(=O)Nc2cccc(C)c2C)cc1 | inconclusive: 56.2 µM [inhibitor, partial curve, poor fit] | – |
| 4 | Cc1ccc(Cc2cnc(N3C(=N)SC(c4ccccc4)C3=O)s2)cc1 (stereo unspecified) | inconclusive: 20 µM [inhibitor, partial curve, poor fit] | – |
| 5 | COc1ccc(-n2nc3c(c2NC(=O)C(=O)NCc2ccccc2)CSC3)cc1 | – | inactive: -5.9% |

Following part

Row | SMILES | Potency | activity, negative = inhibition
45 | CC(C)(C)OC(=O)N[C@H]1C=C[C@@H](OC(=O)CC(=O)OCC(F)(F)F)C1 | – | inactive: 22.7%
46 | CCOc1ccc(/C=C/C(=O)c2c(O)cc(C)oc2=O)cc1 | inconclusive: 35.5 µM [inhibitor, full curve] | –
47 | O=c1[nH]c([N+](=O)[O-])nn1C(c1ccccc1)c1ccccc1 | inconclusive: 2.82 µM [inhibitor, full curve, poor fit] | –
48 | Cc1nn2c(-c3cccc(NC(=O)c4ccco4)c3)nnc2c2ccccc12 | inconclusive: 3.16 µM [inhibitor, full curve, poor fit] | –
49 | Cc1ccc2cccc(OCc3ccccc3)c2n1 | – | inactive: 32.7%
50 | CC1=NN(c2ccc(N)cc2)C(=O)C1 | inconclusive: 1.12 µM [inhibitor, full curve, poor fit] | –
51 | O=C1CCN(CCCc2ccccc2)CCN1[C@H](CO)c1ccccc1 | inconclusive: 89.1 µM [inhibitor, single point] | –
52 | COC(=O)C(C)Oc1ccc2c(c1)O/C(=C\c1cccc(Br)c1)C2=O (stereo unspecified) | inconclusive: 79.4 µM [inhibitor, single point] | –
53 | O=C1SCCc2c1n(Cc1ccccc1)c1ccccc21 | inconclusive: 0.708 µM [inhibitor, full curve, poor fit] | –
54 | CCn1nnc2sc3c(c2c1=O)CCC(C)C3 (stereo unspecified) | – | inactive: 9.62%
55 | CCOc1ccc(C2C(C(=O)OC)=CN(C(C)c3ccccc3)C=C2C(=O)OC)cc1 (stereo unspecified) | inconclusive: 50.1 µM [inhibitor, partial curve] | –
56 | COc1ccc(C(=O)CCS(=O)(=O)c2ccc(C)cc2)cc1OC | inconclusive: 7.94 µM [inhibitor, partial curve, poor fit] | –
57 | CCCC1=C/C(=C/c2ccc(-c3ccccc3OC)o2)C(=O)O1 | inconclusive: 22.4 µM [inhibitor, full curve, poor fit] | –
58 | O=C(c1nc2ccc(Cl)cn2c1CN1CCCC1)N1CCc2ccccc2C1 | active: 17.8 µM | –
59 | O=C(c1cccc(F)c1)N1CCC2(CC1)NCCc1[nH]cnc12 | inconclusive: 0.708 µM [inhibitor, full curve, poor fit] | –
60 | CCCCn1nc2cc(C(=O)NCc3ccco3)ccc2c1OCC | inconclusive: 79.4 µM [inhibitor, partial curve, poor fit] | –
61 | CCc1ccc(-c2cc(C)no2)cc1S(=O)(=O)NCc1ccc(OC)cc1 | – | inactive: 4.42%
62 | COc1ccc2cc3cc(C(=O)NCCN4CCc5ccccc5C4)oc3nc2c1 | inconclusive: 7.94 µM [inhibitor, single point] | –
63 | COc1ccc(-c2ccc(/C=C3/C(=N)N4C(C)=CSC4=NC3=O)o2)c([N+](=O)[O-])c1 | active: 17.8 µM | –
64 | CCN(CC)C(=O)[C@H]1C[C@H](CC(=O)NCc2ccc(OC)c(OC)c2)C(=O)N2CCc3c([nH]c4cc(-c5ccco5)ccc34)[C@]12C | inconclusive: 50.1 µM [inhibitor, partial curve, poor fit] | –
65 | CCOc1ccc(C(=O)c2oc3ccccc3c2NC(=O)c2cc(=O)c3ccc(C)cc3o2)cc1 | – | inactive: 16.1%
66 | FC(F)(F)c1cc(NC2CCCCC2)ccn1 | inconclusive: 50.1 µM [inhibitor, single point] | –

Source: PubChem BioAssay AID588590 (National Center for Advancing Translational Sciences (NCATS), 2011)
